Some of these results come from one statement about several compounds together.
Experiments:
Type in all cases: biochemical
PKC theta kinase = PKC theta kinase (Homo sapiens, UniProt Q04759); assay: PKC theta coupled-enzyme (NADH consumption) kinase assay; conditions: 18 nM PKC theta, 240 μM ATP, 30° C., initial rate at 340 nm
Method: (§1) An assay buffer solution was prepared which consisted of 100 mM HEPES (pH 7.5), 10 mM MgCl2, 25 mM NaCl, 0.1 mM EDTA and 0.01% Brij. […] To 60 μL of this enzyme buffer, in a 384 well plate, was added 2 μL of VRT stock solution in DMSO. […] The enzyme reaction was initiated by the addition of 5 μL stock ATP solution prepared in assay buffer to a final assay concentration of 240 μM. Initial rate data was determined from the rate of change of absorbance at 340 nm (corresponding to stoichiometric consumption of NADH) using a Molecular Devices Spectramax plate reader (Sunnyvale, Calif.) over 15 mins at 30° C. For each Ki determination 12 data points covering the VRT concentration range of 0-20 μM were obtained in duplicate (DMSO stocks were prepared from an initial 10 mM VRT stock with subsequent 1:2 serial dilutions). Ki values were calculated from initial rate data by non-linear regression using the Prism software package (Prism 4.0a, Graphpad Software, San Diego, Calif.).

By UniProt entry, the sequences of proteins in these tests, tags left out. Where a name states a change or a piece, a line headed by the entry shows the natural chain unless it says otherwise.
UniProt Q04759: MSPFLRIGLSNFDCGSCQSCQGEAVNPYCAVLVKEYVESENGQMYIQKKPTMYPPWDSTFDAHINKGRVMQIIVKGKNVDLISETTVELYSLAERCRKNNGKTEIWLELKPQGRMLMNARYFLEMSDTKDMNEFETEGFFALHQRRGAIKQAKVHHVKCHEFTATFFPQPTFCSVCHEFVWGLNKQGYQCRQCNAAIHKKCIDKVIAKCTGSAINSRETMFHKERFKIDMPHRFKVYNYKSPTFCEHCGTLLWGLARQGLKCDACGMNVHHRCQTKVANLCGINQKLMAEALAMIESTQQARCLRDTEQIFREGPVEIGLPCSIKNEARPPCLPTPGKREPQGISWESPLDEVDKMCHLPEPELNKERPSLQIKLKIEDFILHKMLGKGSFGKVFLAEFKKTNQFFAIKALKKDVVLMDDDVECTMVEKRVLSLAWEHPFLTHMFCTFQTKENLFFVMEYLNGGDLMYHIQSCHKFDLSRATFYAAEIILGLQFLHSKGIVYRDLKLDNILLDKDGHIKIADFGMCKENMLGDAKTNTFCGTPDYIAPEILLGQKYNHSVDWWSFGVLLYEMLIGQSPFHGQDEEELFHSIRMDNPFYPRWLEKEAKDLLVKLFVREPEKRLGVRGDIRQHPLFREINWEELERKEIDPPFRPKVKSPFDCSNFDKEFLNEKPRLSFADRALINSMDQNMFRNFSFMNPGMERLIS
UniProt Q05655: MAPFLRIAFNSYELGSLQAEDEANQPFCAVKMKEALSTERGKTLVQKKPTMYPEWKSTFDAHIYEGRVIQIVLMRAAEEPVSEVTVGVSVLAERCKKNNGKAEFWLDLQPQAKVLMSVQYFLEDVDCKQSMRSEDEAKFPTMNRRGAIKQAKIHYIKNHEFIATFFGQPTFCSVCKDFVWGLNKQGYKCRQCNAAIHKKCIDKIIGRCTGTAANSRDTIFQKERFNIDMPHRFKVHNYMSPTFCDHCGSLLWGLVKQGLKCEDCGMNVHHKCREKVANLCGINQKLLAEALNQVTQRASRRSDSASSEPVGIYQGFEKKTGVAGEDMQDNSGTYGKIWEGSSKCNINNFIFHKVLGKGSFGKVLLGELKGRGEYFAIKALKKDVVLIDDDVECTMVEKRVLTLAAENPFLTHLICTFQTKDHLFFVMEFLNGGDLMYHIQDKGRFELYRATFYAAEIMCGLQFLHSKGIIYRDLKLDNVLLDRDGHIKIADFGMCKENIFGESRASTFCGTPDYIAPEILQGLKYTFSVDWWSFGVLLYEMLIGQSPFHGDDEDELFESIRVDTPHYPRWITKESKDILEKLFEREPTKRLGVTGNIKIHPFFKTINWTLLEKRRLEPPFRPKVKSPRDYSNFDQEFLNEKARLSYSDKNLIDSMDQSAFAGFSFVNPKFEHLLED

PKC delta kinase = PKC delta kinase (Homo sapiens, UniProt Q05655); assay: PKC delta coupled-enzyme (NADH consumption) kinase assay; conditions: 46 nM PKC delta, 150 μM ATP, 30° C., initial rate at 340 nm
Method: as §1, with “To 16” for “To 60”, “added 1” for “added 2”, “of 16” for “of 5”, “of 150” for “of 240”

PKC alpha kinase = PKC alpha kinase (Homo sapiens, UniProt P17252); assay: PKC alpha coupled-enzyme (NADH consumption) kinase assay; conditions: 4.5 nM PKC alpha, 130 μM ATP, 100 μM CaCl2, 30° C.
Method: An assay buffer solution was prepared which consisted of 100 mM HEPES (pH 7.5), 10 mM MgCl2, 25 mM NaCl, 0.1 mM EDTA, 100 μM CaCl2 and 0.01% Brij. An enzyme buffer containing reagents to final assay concentrations of 0.002% Triton X-100, 100 μg/mL Phosphatidylserine, 20 μg/mL Diacylglycerol, 360 μM NADH, 3 mM phosphoenolpyruvate, 70 μg/mL pyruvate kinase, 24 μg/mL lactate dehydrogenase, 2 mM DTT, 150 μM substrate peptide ([…] SEQ ID NO. 1) and 4.5 nM PKC alpha kinase was prepared in assay buffer. To 16 μL of this enzyme buffer, in a 384 well plate, was added 1 μL of VRT stock solution in DMSO. The mixture was allowed to equilibrate for 10 mins at 30° C. The enzyme reaction was initiated by the addition of 16 μL stock ATP solution prepared in assay buffer to a final assay concentration of 130 μM. Initial rate data was determined from the rate of change of absorbance at 340 nm (corresponding to stoichiometric consumption of NADH) using a Molecular Devices Spectramax plate reader (Sunnyvale, Calif.) over 15 mins at 30° C. For each Ki determination 12 data points covering the VRT concentration range of 0-20 μM were obtained in duplicate (DMSO stocks were prepared from an initial 10 mM VRT stock with subsequent 1:2 serial dilutions). Ki values were calculated from initial rate data by non-linear regression using the Prism software package (Prism 4.0a, Graphpad Software, San Diego, Calif.).

| SMILES | Ki (PKC theta kinase) [µM] | Ki (PKC delta kinase) [µM] | Ki (PKC alpha kinase) [µM] |
| --- | --- | --- | --- |
| CC(O)(C1CC1)C1CN(c2nc(-c3n[nH]c4ncccc34)c(F)cc2F)CCN1 (stereo not drawn) [Compound 5] | < 0.001 | – | – |
| CC(C)[C@@](C)(O)C1CN(c2nc(-c3n[nH]c4ncccc34)c(C#N)cc2F)CCN1 (stereo partly drawn) [Compound 35] | – | > 1.25 | > 1.25 |
| COCC(C)(O)C1CN(c2nc(-c3n[nH]c4ncccc34)c(F)cc2F)CCN1 (stereo not drawn) [Compound 17] | < 0.05 | < 0.5 | – |
| CC(C)(F)C(C)(O)C1CN(c2nc(-c3n[nH]c4ncccc34)c(F)cc2F)CCN1 (stereo not drawn) [Compound 12] | < 0.001 | – | – |

— patent US9067932B2, “Pyrazolopyridine kinase inhibitors” (Vertex Pharmaceuticals Incorporated, priority 2010, dated 2015)
